# Assay results as given in PubChem BioAssay AID2685 (National Center for Advancing Translational Sciences (NCATS), 2010).
# The campaign covered roughly 320,000 compounds. About 2,100 (0.66%) were called active. Inconclusive means that the source gave no clear call. Such entries were picked first, then a sample of the others. Calls follow the shape of the dose curve; as a rule, active = well fitted inhibition curve with a large enough effect in the signal ratio, with a control signal flat (not every such curve was filed as active); inconclusive = small, poorly fitted or top-dose-only effect, or effect the other way, or a change in a side signal; inactive = flat fitted curve, though single readings scatter; the % refers to the signal ratio. A potency beside an inconclusive call is a rough fit, not a confirmed value.
# Assay: qHTS Assay for Lipid Storage Modulators in Drosophila S3 Cells
# Settings: BODIPY lipid droplet fluorescence, 18-24 h, cells fed with added oleic acid; lipid storage change, negative = inhibition: at 46.1 µM (top of the series) unless noted
# How it was run: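 Drosophila S3 cells got compounds at several concentrations plus oleic acid (400 uM solution). Laser-scanning cytometry with 488 nm excitation read lipid droplets at 500-530 nm and cells at 575-640 nm. Percent activity was relative to 20 uM Triacsin C.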
# % is scaled to controls: 0 for no effect and ±100 for the full control effect; potency is read from the fitted curve at half-maximal effect.
SMILES,"lipid storage change, negative = inhibition",Potency,outcome
Cc1csc(NC(=O)CS(=O)(=O)Cc2ccccc2)n1,inconclusive: 9.93%,–,–
COc1ccc(NS(=O)(=O)c2cc(NC(=O)CCSc3ccccc3)ccc2OC)cc1,–,"inconclusive: 20.6 µM [activator, single point]",–
Cc1cc(Cl)ccc1NC(=O)/C=N/O,–,"inconclusive: 8.2 µM [activator, partial curve, poor fit]",–
O=C(Nn1cnc2ccccc2c1=O)c1ccccc1F,inactive: -8.71%,–,–
O=C(COc1ccccc1Cl)NC(=S)Nc1ccc(CN2CCOCC2)cc1,inconclusive: 4.89%,–,–
O=C(CN1C(=O)NC(c2ccccc2)(c2ccccc2)C1=O)Nc1ccc2[nH]c(=O)[nH]c2c1,–,"inconclusive: 29.1 µM [falling, single point]",–
CCOC(=O)CNC(=O)Nc1nnc(-c2ccc(OCC)cc2)o1,inconclusive: 8.97%,–,–
COc1ccccc1N(C)S(=O)(=O)c1ccc(C(=O)OCC(=O)Nc2ccc(C(N)=O)cc2)cc1,–,"inconclusive: 18.4 µM [falling, partial curve, poor fit]",–
Cc1nc2c(Cl)cc(Cl)cc2[nH]1,inconclusive: -23%,–,–
Cc1oc(-c2ccc(Cl)cc2)nc1CN1CCC(C(=O)NCC2CCCO2)CC1 (configuration not stated),inconclusive: -144%,–,–
COc1ccc(-n2nc(C(=O)NCC(=O)NCCc3ccc(OC)c(OC)c3)c3ccccc3c2=O)cc1Cl,–,"inconclusive: 29.1 µM [falling, single point]",–
Cc1c(Cc2ccccc2)c(NCCN(C)C)n2c(nc3ccccc32)c1C#N,inconclusive: 14.8%,–,–
CC(C)C1(CCNC(=O)c2cccs2)CCOC(C)(C)C1 (configuration not stated),inconclusive: 2.29%,–,–
CC(CNC(=O)COc1ccc2c(c1)OCO2)c1ccccc1 (configuration not stated),–,"inconclusive: 0.082 µM [activator, full curve, poor fit]",–
COc1ccc(/C=C(/NC(=O)c2ccccc2)C(=O)NC2CCS(=O)(=O)C2)cc1 (configuration not stated),inconclusive: -5.57%,–,–
Cc1ccc(S(=O)(=O)c2c(COC(=O)c3ccc(Cl)cc3)c(-c3ccccc3)nn2C)cc1,–,"inconclusive: 29.1 µM [activator, single point]",–
O=C(OCCN=C1NS(=O)(=O)c2ccccc21)C1CC(=O)N(c2ccc3ccccc3c2)C1 (configuration not stated),–,"inconclusive: 16.4 µM [activator, single point]",–
O=C1CCCc2c1nc(-c1ccccc1)n2O,inconclusive: -61.1%,–,–
CC(C)N1C(=O)N(c2cccc(Cl)c2)C(C)(O)CC1(C)C (configuration not stated),–,"inconclusive: 5.8 µM [falling, full curve, poor fit]",–
CCN(CC)CCCNC(=O)c1oc2ccc(S(=O)(=O)N3CC(C)CC(C)C3)cc2c1C (configuration not stated),–,"inconclusive: 29.1 µM [activator, single point]",–
CCOC(=O)c1sc(NC(=O)CSc2nnc(C)s2)c(C(=O)OCC)c1C,–,"inconclusive: 0.231 µM [activator, full curve, poor fit]",–
O=C(CNC(=O)c1cccc(F)c1)N/N=C/c1cc(Br)ccc1OC(=O)/C=C/c1ccco1,inconclusive: -13%,–,–
Nc1cccnc1Sc1ccc(Cl)cc1,inconclusive: 36.9%,–,–
COc1ccc(NC(=O)COC(=O)CNC(=O)COc2ccccc2)cc1OC,inconclusive,–,–
O=C(NC1CC1)C1CCN(C2CCN(C(=O)c3ccc4cccc(F)c4n3)CC2)CC1,–,"inconclusive: 6.51 µM [falling, single point]",–
Cc1ccc(S(=O)(=O)N2CCC(C)CC2)cc1,inconclusive: 225%,–,–

SMILES,"lipid storage change, negative = inhibition",Potency,outcome
O=C(CCCCCn1c(=O)[nH]c2ccsc2c1=O)NCc1ccc2c(c1)OCO2,–,"inconclusive: 5.17 µM [falling, partial curve]",–
Cc1ccc2c(c1)-c1cc(C)nn1C(c1sccc1C)N2 (configuration not stated),inconclusive: 248%,–,–
O=C(NCc1ccccc1)[C@H]1C[C@@H]1[C@H](NP(=O)(c1ccccc1)c1ccccc1)c1ccccc1,inconclusive: 0.0875%,–,–
COc1ccc(C(=O)NC23CC4CC(CC(C4)C2)C3)cc1OC,inconclusive: -38.5%,–,–
Cc1ccc(C(=O)c2c3ccccc3[n+]([O-])n2CCC(N)=O)cc1,inconclusive: -3.89%,–,–
Cc1ccsc1C(=O)OC(C)C(=O)NC1CCCCC1C (configuration not stated),inconclusive,–,–
CCn1ncc(C2=NOC(C(=O)N3CCC(C(N)=O)CC3)C2)c1C (configuration not stated),inconclusive: 2.14%,–,–
NS(=O)(=O)c1ccc(S(=O)(=O)N(CCc2ccccc2)Cc2ccccn2)cc1,inconclusive: -21%,–,–
O=C(CN1CCC(NC(=O)Cc2ccccc2)CC1)Nc1ccccc1Br,inconclusive: 8.92%,–,–
O=S(=O)(NCCN1CCCC1)c1cccc2cccnc12,inconclusive: 64.1% [activator],–,–
CCCCP(=O)(CCCC)Cc1ccccc1O,inconclusive: -16%,–,–
CCC(=O)N1N=C(c2ccc(C)o2)CC1c1ccc(N(C)C)cc1 (configuration not stated),–,"inconclusive: 6.51 µM [rising, single point]",–
COc1cc(CSC)nc(-c2ccccc2)n1,inconclusive: 34.3%,–,–
COc1ccc(S(=O)(=O)N2CCCCC2)cc1NC(=O)c1cnc(C)cn1,inconclusive: 22.6%,–,–
O=C(c1cc2ccccc2o1)N1CCN(c2ccccn2)CC1,inconclusive: -36.1%,–,–
CCOC(=O)CSc1ncnc2c1nnn2-c1ccc(F)cc1,inconclusive: 11.3%,–,–
CNc1nc(N)c([N+](=O)[O-])c(Nc2cccc(F)c2)n1,inconclusive: 29.2%,–,–
COc1cccc(N2CCN(c3ccc4nnc(CCC(=O)Nc5cccc(C(C)=O)c5)n4n3)CC2)c1,–,–,inactive [at 46.1 µM]
O=C(CCCC(=O)c1ccc(O)cc1)c1ccc(O)cc1,–,"inconclusive: 18.4 µM [activator, single point]",–
COC(=O)/C=C(\Oc1ccccc1)C1(O)CCCCC1,inconclusive: -22.7%,–,–
COc1cccc(NC(=O)c2ccccc2-c2nc(-c3cccc(C)c3)no2)c1,inconclusive: 40.6%,–,–
CC1(C)CC(NS(=O)(=O)OCC(Cl)(Cl)Cl)c2cc(C#N)ccc2O1 (configuration not stated),inconclusive: 47.6%,–,–
COc1ccc(CNC(=O)COC(=O)c2c(C)nn(-c3ccccc3)c2C)cc1OC,inconclusive: -30.6% [at 0.0737 µM],–,–
N#CCSc1nnc(COc2ccccc2)n1-c1ccccc1,inconclusive: -16.9%,–,–
CC(Sc1nnc(NC2CC2)s1)C(=O)Nc1ccc(N2CCOCC2)cc1 (configuration not stated),inconclusive,–,–
C/C(CC(=O)Nc1ccc(Cl)cc1Cl)=N\NC(=O)c1cnccn1,inconclusive: 6.29%,–,–

SMILES,"lipid storage change, negative = inhibition",Potency,outcome
CCCCN(C(=O)c1ccc(N(C)S(=O)(=O)c2ccc(C)cc2)cc1)c1c(N)n(CCCC)c(=O)[nH]c1=O,inconclusive: 24.1%,–,–
CC(C)(C)c1ccc(C(=O)NNC(=S)NCC2CCCO2)cc1 (configuration not stated),inconclusive: -38.7%,–,–
O=C(COC(=O)c1ccc(S(=O)(=O)N2CCOCC2)cc1)NC1CCCC1,inconclusive: 32.6%,–,–
CCCc1nc(SCC(=O)NCc2ccco2)c2c(=O)n(C)c(=O)n(C)c2n1,–,"inconclusive: 0.082 µM [rising, full curve]",–
O=C(CSCc1ccccc1)Nc1ccc2c(c1)C(=O)NC2=O,inconclusive: 8.62%,–,–
Cc1nnc(NC(=O)c2cccc(S(=O)(=O)N3CCc4ccccc43)c2)s1,–,"inconclusive: 29.1 µM [activator, single point]",–
CN(C)c1ccc(C(CNS(=O)(=O)c2ccc(F)cc2)c2c[nH]c3ccccc23)cc1 (configuration not stated),–,"inconclusive: 29.1 µM [falling, single point]",–
O=C(O)c1ccc(N/N=C/c2cc(Br)cs2)cc1,inconclusive: 10.5%,–,–
Cc1ccc(-n2nc3c(=O)n(C(C)C(=O)NCCC4=CCCCC4)nc(C)c3c2C)cc1 (configuration not stated),inconclusive: -69.9%,–,–
Cc1nc2ccc(S(=O)(=O)NCC(=O)NCCN3CCCCC3C)cc2s1 (configuration not stated),inconclusive: 2.26%,–,–
O=C(N/N=C/C(Br)=C/c1ccccc1)c1ccccc1F,inconclusive: -100%,–,–
COc1ccc(S(=O)(=O)N2CCC(C(=O)NCc3ccc(C)cc3)CC2)cc1,inconclusive: 59.5%,–,–
NNc1ccc(Cl)nn1,inconclusive: 5.34%,–,–
O=C(CSc1n[nH]c(-c2cccs2)n1)N1CCN(S(=O)(=O)c2ccccc2)CC1,–,"inconclusive: 5.17 µM [activator, partial curve, poor fit]",–
O=C(NNS(=O)(=O)c1ccccc1)C1CCN(S(=O)(=O)c2ccccc2)CC1,inconclusive: -32.9%,–,–
COc1cccc(N2CCN(C(=O)c3cc4ccc(OC)cc4[nH]3)CC2)c1,inconclusive: 20%,–,–
COc1ccc(F)cc1S(=O)(=O)NCC1CCCO1 (configuration not stated),inconclusive: -0.851%,–,–
Nc1ccc(C(=O)OCCCc2nc3cc4ccccc4cc3[nH]2)cc1,–,active: 25.9 µM,–
CN1N=C(/C=C/c2ccccc2)CCC1=O,inconclusive: -8.63%,–,–
CC1=NN(/C(=N\c2nnc(C)s2)Nc2ccc(C(C)(C)C)cc2)[C@H](c2ccc(C)cc2)S1,inconclusive: 9.16%,–,–
COc1ccc(CN2CCN(Cc3cc(=O)oc4cc(C)ccc34)CC2)c(OC)c1OC,inconclusive: 35.4%,–,–
Cc1ccc(C)c(OCCC(=O)OCC(=O)NC2CC2)c1,inconclusive,–,–
CNc1oc(-c2ccccc2Cl)nc1P(=O)(c1ccccc1)c1ccccc1,–,"inconclusive: 29.1 µM [cytotoxic, single point]",–
CC1Cc2ccccc2N1S(=O)(=O)c1cccc(C(=O)c2nccn2C)c1 (configuration not stated),–,"inconclusive: 1.84 µM [activator, partial curve]",–
CCN(CC(=O)Nc1c(F)cccc1F)C(=O)Cn1[nH]c(=O)c2ccccc2c1=O,inconclusive: 13.1%,–,–

# Not a retest: entries from further up.
SMILES,"lipid storage change, negative = inhibition",Potency,outcome
CCn1ncc(C2=NOC(C(=O)N3CCC(C(N)=O)CC3)C2)c1C (configuration not stated),inconclusive: 2.14%,–,–
NS(=O)(=O)c1ccc(S(=O)(=O)N(CCc2ccccc2)Cc2ccccn2)cc1,inconclusive: -21%,–,–
O=C(CN1CCC(NC(=O)Cc2ccccc2)CC1)Nc1ccccc1Br,inconclusive: 8.92%,–,–
